According to paper PMC7819943, “Rice protein-binding microarrays: a tool to detect cis-acting elements near promoter regions in rice”:
The other results are listed elsewhere or left out.

What follows are sequences tested against T1, OsSMF1 (Oryza sativa, UniProt Q6ZLB0 1-436) (assay: protein-binding microarray (RPBM); PBS, 2% BSA, 51.3 ng/ul salmon testes DNA, 50 uM zinc acetate, 200 nM TF, 25 C, 1 h; high values mean tight binding). Details: protein: recombinant; tags: N-terminal polyhistidine and DsRed monomer fusion (pET32a); chain copies: 2; label: CyDye5-dUTP incorporated in the synthesized complementary strand; 3' TTTTT single-stranded linker to array surface; dsDNA, one strand shown.
T1 sequence: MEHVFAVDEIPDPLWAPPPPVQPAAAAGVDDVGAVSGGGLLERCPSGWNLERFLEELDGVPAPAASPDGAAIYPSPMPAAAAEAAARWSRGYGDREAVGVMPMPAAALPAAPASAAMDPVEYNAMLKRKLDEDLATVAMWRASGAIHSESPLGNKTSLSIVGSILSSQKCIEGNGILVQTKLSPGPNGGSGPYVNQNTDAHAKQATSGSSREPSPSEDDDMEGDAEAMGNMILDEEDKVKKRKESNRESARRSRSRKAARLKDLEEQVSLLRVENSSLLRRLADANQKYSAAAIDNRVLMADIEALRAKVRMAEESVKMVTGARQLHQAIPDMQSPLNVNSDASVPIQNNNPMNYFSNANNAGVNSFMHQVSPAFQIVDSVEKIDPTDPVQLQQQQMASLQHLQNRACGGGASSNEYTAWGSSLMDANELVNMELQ
Outline: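 Binding signal is reported as fluorescence intensity per feature (arbitrary units) from an Axon 4000B scanner. Incubation used 200 nM of each Ni–NTA-purified, N-terminally polyhistidine- and DsRed-fused transcription factor from E. coli BL21-CodonPlus on a double-stranded custom Agilent array for 1 h at 25 °C, with 50 µM zinc acetate in the buffer, followed by washing.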

Row | Sequence | binding signal
1 | ATTGCCACACATGACACATCTCTGACTATGTGTAATCATTCGGAGTCACCTAGTGCAG | 8070 fluorescence intensity (a.u.)
2 | CGCGCGCTCGGTCCAGGCTTGAATCCCTTTGCTCCCTTCGCGGAGTCACCTAGTGCAG | 3560 fluorescence intensity (a.u.)
3 | AGGGGAGGAGGTGACTGCCACCATGGCCTCGCCCTCCTTGCGGAGTCACCTAGTGCAG | 3530 fluorescence intensity (a.u.)
4 | CCTCCATCTCCATCTCCTCTTCGAGTCCTCGTCGTCGTGGCGGAGTCACCTAGTGCAG | 3640 fluorescence intensity (a.u.)
5 | TCCCCAGCCGCCACCCACACACAAGCGCGCCGTTGGCCGTCGGAGTCACCTAGTGCAG | 3960 fluorescence intensity (a.u.)
6 | GCCACTAACCGCTTGATGCGTGCACGTCAGATCATATGCCCGGAGTCACCTAGTGCAG | 9350 fluorescence intensity (a.u.)
7 | GATGGCGCAGGGGAGGAAAGCGCGTACGTACCAGCGCCTCCGGAGTCACCTAGTGCAG | 3260 fluorescence intensity (a.u.)
8 | GGTAGGGATTGAGGTTTGGTGGAGATTGATACAACCCCTTCGGAGTCACCTAGTGCAG | 15000 fluorescence intensity (a.u.)
9 | AATGTCATACTGCACCGACTTTCCAGTCCAACTCAGCACACGGAGTCACCTAGTGCAG | 5610 fluorescence intensity (a.u.)
10 | GCATATCGGATCATAATAAACTGTGTACGCAATCGCACCACGGAGTCACCTAGTGCAG | 3320 fluorescence intensity (a.u.)
11 | CCGTCATGCCGCGCGAGCGTGTGACTGTGGACTGTGGTGTCGGAGTCACCTAGTGCAG | 3960 fluorescence intensity (a.u.)
12 | AAGTTCAAGGGCCTCTGGCCTCCACCTCACCAAACGCCGACGGAGTCACCTAGTGCAG | 5220 fluorescence intensity (a.u.)
13 | AGCCCCATGTGCCGGCTCACACACCTGTTTTCGGTAGTCTCGGAGTCACCTAGTGCAG | 12200 fluorescence intensity (a.u.)
14 | CTAACAAGCAAAGGCGTCAGCATGTTAAGGCTCAGAGAAACGGAGTCACCTAGTGCAG | 3500 fluorescence intensity (a.u.)
15 | CACATGAGTCAATGACATGTGGGTCAGGATGGCATATCTCCGGAGTCACCTAGTGCAG | 3420 fluorescence intensity (a.u.)
16 | GGTCACCTTTGACGGGTCCTACGGGATACCGTCATCGGTGCGGAGTCACCTAGTGCAG | 3420 fluorescence intensity (a.u.)
17 | AGGCCTTACCCAGACACGCAAGCAGTCAGTCACAACACATCGGAGTCACCTAGTGCAG | 7160 fluorescence intensity (a.u.)
18 | GCGGCAGCCTCCGATCGCGTCATCGCGCGCCACCTCGATACGGAGTCACCTAGTGCAG | 8620 fluorescence intensity (a.u.)
19 | TTGTAACGAACTGGAATCAGCTAGAATGACAATATAGCACCGGAGTCACCTAGTGCAG | 3270 fluorescence intensity (a.u.)
20 | TTATGTACAATGTATGTGGCAGGTGGCACGATTGGCAAGTCGGAGTCACCTAGTGCAG | 4350 fluorescence intensity (a.u.)
21 | ATAATTTCTAAAATACTTATCTTAGATACATAAAGATTATCGGAGTCACCTAGTGCAG | 23700 fluorescence intensity (a.u.)

Row | Sequence | binding signal
22 | TTGGAGTGGTGGGGATGCTGAAGTGGAACTGACCTTAACTCGGAGTCACCTAGTGCAG | 3970 fluorescence intensity (a.u.)
23 | GCCCAGACCACGCAAGCGGAGCGGTGCGTGACGGTGACCGCGGAGTCACCTAGTGCAG | 4430 fluorescence intensity (a.u.)
24 | CTCTCCTGCTCATAGAGCGCCTTCGCTGTCGACGTCCCTCCGGAGTCACCTAGTGCAG | 3210 fluorescence intensity (a.u.)
25 | TAACATGGTGATGACGCACTCATATCTGATGAAGCCACCTCGGAGTCACCTAGTGCAG | 9520 fluorescence intensity (a.u.)
26 | GAGCTAGCTTGTGGGGCCCACATGTCAATGATAAAGATAACGGAGTCACCTAGTGCAG | 3580 fluorescence intensity (a.u.)
27 | CTAACTTCCACGTTGCATATGGTTTGCTAAAACATTTCCCCGGAGTCACCTAGTGCAG | 4420 fluorescence intensity (a.u.)
28 | AGTTATGTTATTTTATGACGGAGGGAATAATAGAGAAATGCGGAGTCACCTAGTGCAG | 5610 fluorescence intensity (a.u.)
29 | TACTTGTTGACTGGATTGGAGGATGGACGGTAGTCGGTTGCGGAGTCACCTAGTGCAG | 4030 fluorescence intensity (a.u.)
30 | TTCATTTCGTCGTTTAGCGTGCTAGTCTACTTCACCTTCCCGGAGTCACCTAGTGCAG | 10400 fluorescence intensity (a.u.)
31 | GCGTCTCCAACGTACGAACGAACATTGGCGACGTGGAGGCCGGAGTCACCTAGTGCAG | 5140 fluorescence intensity (a.u.)
32 | GACGGGCGGCGGTGGGGCTGACGCGGGCGACGGAGGGGCTCGGAGTCACCTAGTGCAG | 6720 fluorescence intensity (a.u.)
33 | AGGCGTCCATCGAAGCGTCTCTCGCTGCCGTGTGGGCCCCCGGAGTCACCTAGTGCAG | 3200 fluorescence intensity (a.u.)
34 | GGTTGTTGAGCTAGCATTATACGTACATTTAAGTTTGGCACGGAGTCACCTAGTGCAG | 3340 fluorescence intensity (a.u.)
35 | GCTACACTTAACGCTGTCCACAACTCCACATACGCGTTACCGGAGTCACCTAGTGCAG | 3330 fluorescence intensity (a.u.)
36 | TATCCACCACCTAGTTGCTGCCACCTCCTGAGAACCAAGCCGGAGTCACCTAGTGCAG | 4130 fluorescence intensity (a.u.)
37 | TAAATGACATATCATGATAAGTTCTAAGATTTGGATATGTCGGAGTCACCTAGTGCAG | 3450 fluorescence intensity (a.u.)
38 | CTGCAGTGACGGCAGCTGCTACTACTCGTCGTCTCGTCGCCGGAGTCACCTAGTGCAG | 3900 fluorescence intensity (a.u.)
39 | AAACAGCCATCAAGGCCCAAAGGCCCAGAAATATCACCGACGGAGTCACCTAGTGCAG | 35500 fluorescence intensity (a.u.)
40 | GTCGAGCACAAGCGCGTGGCAGCCGTGGCCTGATGGCGCGCGGAGTCACCTAGTGCAG | 4290 fluorescence intensity (a.u.)
41 | CGCTGCCCGTCTTCGCCAGCGAGCGCCACCGCCGCTCTTCCGGAGTCACCTAGTGCAG | 3430 fluorescence intensity (a.u.)
42 | ATCTCTCTCATATTCCTTCGATCTGCAGCTTGTACGTTGGCGGAGTCACCTAGTGCAG | 3300 fluorescence intensity (a.u.)

Single values from above:
AGGGGAGGAGGTGACTGCCACCATGGCCTCGCCCTCCTTGCGGAGTCACCTAGTGCAG | binding signal: 3530 fluorescence intensity (a.u.)
AGTTATGTTATTTTATGACGGAGGGAATAATAGAGAAATGCGGAGTCACCTAGTGCAG | binding signal: 5610 fluorescence intensity (a.u.)
CTAACAAGCAAAGGCGTCAGCATGTTAAGGCTCAGAGAAACGGAGTCACCTAGTGCAG | binding signal: 3500 fluorescence intensity (a.u.)
